Data on 1 compound can be found in patent US6309842A, “Use of modified tethers in screening compound libraries” (Glaxo Wellcome Inc., priority 1997, dated 2001).

This data set has as its system 3E7 antibody. The experiment in a line: Gold sorting of AF12861 beads stained with 3E7 preincubated with YGGFL. In kind it is binding. The settings on record: 12.5 nM 3E7.

On to `CC(C)C[C@H](NC(=O)[C@H](Cc1ccccc1)NC(=O)CNC(=O)CNC(=O)[C@@H](N)Cc1ccc(O)cc1)C(=O)O` [YGGFL], for which the “Sucrose concentration at which 3E7 stained beads precipitate” value by setting is: (1 μM YGGFL competition) 44 % sucrose; (10 μM YGGFL competition) 44 % sucrose; (100 μM YGGFL competition) 38.2 % sucrose; (1 mM YGGFL competition) 36.1 % sucrose.
